Measurements as given in PubChem BioAssay AID652054 (National Center for Advancing Translational Sciences (NCATS), 2013).
In all, about 360,000 compounds went through this assay and about 9,100 (2.5%) were called active. This list was built around the results that the source calls inconclusive (neither active nor inactive); the mix of calls is not that of the screen. Cut-off read from the data, not from the text of the source: active = max response below about -50%; inconclusive = no clear call, values can overlap the other calls; inactive = above that.

Sequences of proteins named here, by UniProt entry; tags and fusion partners are left off.
UniProt P35462, whole entry, looked up: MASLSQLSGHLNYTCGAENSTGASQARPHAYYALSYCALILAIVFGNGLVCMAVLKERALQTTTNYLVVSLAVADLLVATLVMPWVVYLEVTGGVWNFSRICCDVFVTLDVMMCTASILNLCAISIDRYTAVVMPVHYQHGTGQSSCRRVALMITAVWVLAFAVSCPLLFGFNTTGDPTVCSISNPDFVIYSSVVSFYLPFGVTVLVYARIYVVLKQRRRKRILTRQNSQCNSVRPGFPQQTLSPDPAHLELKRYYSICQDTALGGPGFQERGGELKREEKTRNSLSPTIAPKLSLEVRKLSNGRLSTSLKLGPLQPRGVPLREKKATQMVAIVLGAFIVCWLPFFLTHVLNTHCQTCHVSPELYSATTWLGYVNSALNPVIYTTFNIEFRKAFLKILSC

Molecular target: D(3) dopamine receptor (Homo sapiens) (UniProt P35462)
Experiment: qHTS of D3 Dopamine Receptor Antagonist: qHTS
Conditions: D3R cells, DiscoveRx beta-arrestin luminescence, antagonist mode; active compounds read low
Method in brief: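 Cells plated overnight at 1500 cells/well, then exposed to library compounds with dopamine controls for 90 minutes at 37 degrees C. DiscoveRx reagent added for 30–60 minutes at room temperature; luminescence read, quantitative HTS format.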
% is set by controls: 0 for no effect and ±100 for the full control effect.

Row | Compound | max response, negative = inhibition
1 | CCCCOc1ccc(S(=O)(=O)NCc2csc(C)n2)cc1 | inactive: 12.7%
2 | O=C(CN1CCN(Cc2ccccc2)CC1)Nc1cccc(Cl)c1 | inactive: -28.2%
3 | CCCOC(=O)NC(CC)COC(=O)Nc1cc(C)ccc1C (stereo not drawn) | active: -87%
4 | Cc1ccc(NC(=O)/C(=C/c2cccc([N+](=O)[O-])c2)NC(=O)C2CCCCC2)cc1 | inactive: -6.91%
5 | O=C(NCCCN1CCOCC1)c1ccc2c(c1)N(Cc1ccc(F)cc1)CCS2 | inactive: -21.5%
6 | Fc1cc(NCc2ccccc2)nc(NCc2ccccc2)n1 | inactive: -1.84%
7 | COc1ccc(OC)c(Nc2ncnc3c2cnn3-c2ccccc2)c1 | inconclusive: -40.8%
8 | O=C(CCS(=O)(=O)c1ccc(Br)s1)NC1CCCCCC1 | inconclusive: -30.8%
9 | COc1cc(C)c(CN2CCN(CC(=O)Nc3ccccc3C(=O)NC3CC3)CC2)cc1OC | inactive: -20.8%
10 | CN(CCCNC(=O)c1cc2c(Cl)nc3ccccc3c2s1)Cc1ccccc1 | inconclusive: -46.9%
11 | CCC1CCCCN1CCCNC(=O)C1CC(=O)N(CCc2ccccc2)C1 (stereo not drawn) | inactive: 24.3%
12 | Cc1ccc2c(c1)C(=C(C#N)C#N)C(=O)N2CCN1CCCCC1 | active: -54.6%
13 | Cc1ccc(C2C=CC(C#N)=CN2Cc2ccccc2)cc1 (stereo not drawn) | inconclusive: -31.3%
14 | Cc1cc([N+](=O)[O-])nn1CC(=O)NCc1cccs1 | inconclusive: -32.8%
15 | O=C(Nc1ccccc1)c1cc(C2CCCCN2C(=O)c2cccs2)on1 (stereo not drawn) | inconclusive: -31.3%
16 | COc1ccc(/C=C2/SC(=S)N(CCC(=O)O)C2=O)cc1 | inconclusive: -36.1%
17 | Cc1nn2c(=S)[nH]nc2[nH]c1=O | inactive: -25.7%
18 | COc1ccc(CCNCc2ccccc2N2CCCC2)cc1 | inactive: 4.65%
19 | Cc1ccccc1CS(=O)(=O)CCC(=O)NCCCN1CCN(c2ccccc2F)CC1 | active: -59.6%
20 | Cc1sc2ncnc(NC3CCN(Cc4ccccc4)CC3)c2c1C | active: -74.9%

Row | Compound | max response, negative = inhibition
21 | Cc1nn(-c2ccccc2)c(N2CCCC2)c1/C=N/Nc1ccc(S(N)(=O)=O)cc1[N+](=O)[O-] | inconclusive: -47.2%
22 | Cc1csc(N=Cc2ccc([N+](=O)[O-])o2)n1 | inactive: 11.4%
23 | C=CCN(CC=C)CCOc1cccc2ccccc12 | inconclusive: -43.9%
24 | CCCCOC(=O)c1ccc(NC(=S)NC(=O)c2c(Br)c(C)nn2C)cc1 | inconclusive: -37.9%
25 | C/C(=C\C=C(C#N)C#N)c1cc(C#N)c(N)o1 | inactive: -26%
26 | COc1ccc(C(C)=O)cc1CSC(=N)N | active: -54.1%
27 | O=C(CSc1nccc(=O)[nH]1)N1CCN(c2ccccc2)CC1 | inconclusive: -36.6%
28 | CCOc1ccc(C(=O)NCc2ccncc2)cc1OCC | inconclusive: -49.1%
29 | Cc1cc(N/N=C/c2ccccc2[N+](=O)[O-])nc(-n2nc(C)cc2C)n1 | inconclusive: -31.3%
30 | COc1cc2c(cc1NC(=O)c1ccc3c(c1)OCO3)oc1ccccc12 | inactive: 9.29%
31 | Cc1ccccc1Cn1ccc(NC(=O)c2nn(C)cc2[N+](=O)[O-])n1 | inactive: -1.66%
32 | COc1cc(C2c3cc4c(cc3OC(C)(N3CCCC3)C2C)OCO4)cc(OC)c1OC (stereo not drawn) | inactive: -20.7%
33 | O=C(COc1ccccc1)Nc1ccc([N+](=O)[O-])cc1 | inactive: -11.4%
34 | COc1cc(-c2noc(C)c2C#Cc2ccsc2)cc(OC)c1OC | inactive: 0%
35 | CCc1nc2ccc(C(=O)Nc3cc(-c4ccccc4)ccc3OC)cn2c1N(CCN(C)C)CC1CC1 | active: -69%
36 | O=[N+]([O-])c1ccc(CNc2ccc(Cl)cc2)s1 | inactive: -8.3%
37 | COc1ccccc1Cc1c(-c2ccco2)nc2ccc(C)cn12 | active: -50.5%
38 | Cc1ccc(-c2csc3ncnc(SCc4ccc(C(=O)O)cc4)c23)cc1 | inactive: -17.6%
39 | Cc1sc2c(c1C)c(=O)n(-c1ccc(Cl)cc1)c(=O)n2Cc1cc(=O)n2ccccc2n1 | active: -54.5%
40 | CCOc1cc(OCC)cc(C(=O)O)c1 | inconclusive: -35.5%

Quoted at random: 4 entries already listed.
Row | Compound | max response, negative = inhibition
27 | O=C(CSc1nccc(=O)[nH]1)N1CCN(c2ccccc2)CC1 | inconclusive: -36.6%
34 | COc1cc(-c2noc(C)c2C#Cc2ccsc2)cc(OC)c1OC | inactive: 0%
31 | Cc1ccccc1Cn1ccc(NC(=O)c2nn(C)cc2[N+](=O)[O-])n1 | inactive: -1.66%
36 | O=[N+]([O-])c1ccc(CNc2ccc(Cl)cc2)s1 | inactive: -8.3%

More structures:

Row | Compound | max response, negative = inhibition
41 | CCCC(C)NC(=O)/C=C/c1cccc([N+](=O)[O-])c1 (stereo not drawn) | inconclusive: -46.4%
42 | COC(=O)c1ccc(COc2ncnc3c(Cl)cc(Cl)cc23)o1 | inactive: 4.32%
43 | Cc1cc(NC(=O)c2c(Cl)cnn2C)no1 | active: -71.3%
44 | COc1ccc(-c2c3c(cc4ncn(Cc5ccccc5)c24)COC3=O)cc1 | inconclusive: -30.7%
45 | CCOC(=O)C1(C)CCN1C(=O)c1cccc(OC(F)(F)F)c1 (stereo not drawn) | inconclusive: -33.5%
46 | CCC(=O)Nc1ccc(C(=O)NNC(=O)CCCCC(=O)NNC(=O)c2ccc(NC(=O)CC)cc2)cc1 | inconclusive: -40.7%
47 | O=C1C2C3C=CC(C3)C2C(=O)N1CCN1CCN(Cc2ccc([N+](=O)[O-])cc2)CC1 (stereo not drawn) | inconclusive: -31%
48 | CCN1CCSc2ccc(C(=O)NCc3ccccc3F)cc21 | inconclusive: -32.8%
49 | CC(C)N(C(=O)c1ccc2nc(-c3ccccc3)c(-c3ccccc3)nc2c1)C(C)C | inconclusive: -36.6%
50 | CCC(C)(C)C(=O)Nc1ncc(S(=O)(=O)c2ccc([N+](=O)[O-])cc2)s1 | inactive: -3.66%
51 | COc1ccc(OC)c(NC(=O)Nc2ccc3c(c2)CCC3)c1 | inconclusive: -35.7%
52 | CCNC(=S)Nc1ccc(NC(=O)c2ccccc2O)cc1 | inconclusive: -36.7%
53 | CCOC(=O)C1CCN(Cc2ccc(-c3ccccc3)cc2)CC1 | inconclusive: -35.5%
54 | O=C(NCCCSc1ccccc1)c1cc(Br)ccc1O | inconclusive: -36.6%
55 | Cn1c(N)c(C(=O)COC(=O)C2CCCCC2)c(=O)n(C)c1=O | inconclusive: -30.6%
56 | O=C(Nc1ccccc1Cl)c1c(F)c(F)c(F)c(F)c1F | active: -61.9%
57 | Cc1ccccc1OCc1nc2ccccc2c(=O)n1/N=C/c1c[nH]c2ccccc12 | inactive: 30.9%
58 | C[C@H](CO)N1C[C@H](C)[C@@H](CN(C)S(=O)(=O)c2cccs2)Oc2ccc(NC(=O)Nc3ccc4c(c3)OCO4)cc2C1=O | inconclusive: -44.2%
